Data taken from PubChem BioAssay AID504444 (National Center for Advancing Translational Sciences (NCATS), 2011).
About 7,500 (2.1%) of roughly 360,000 compounds were called active. Inconclusive means that the source gave no clear call. Such entries were picked first, then a sample of the others. Calls follow the shape of the dose curve; as a rule, active = well fitted inhibition curve with a large enough effect; inconclusive = small, poorly fitted or top-dose-only effect, or effect the other way; inactive = flat fitted curve, though single readings scatter. Potencies of inconclusive entries are doubtful fits and often do not repeat.

Assay: Nrf2 qHTS screen for inhibitors; also: nearly all actives have a fitted effect of over 60% in size
Settings: A549 ARE-Fluc reporter, luciferase luminescence, 18-24 h; series mostly up to 46 µM
How it was run: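 A549 ARE_Fluc cells (5000/well, 5% FBS OPTI-MEM) pre-incubated 2 h, then treated with compounds 18-24 h at 37C/5% CO2 in concentration-response. CellTiter-Fluor viability read first; BugLite luciferase luminescence after 15 min at room temperature gives Nrf2 activity.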
Potency is read from the fitted curve at half-maximal effect.

SMILES | Potency
CCOc1ccccc1NC(=O)CCC(=O)Nc1nnc(C2CCCCC2)s1 | inconclusive: 0.0046 µM [activator, full curve, poor fit]
Cc1ccc(OCC(=O)Nc2ccc3nn(-c4ccc(C)cc4)nc3c2)cc1 | inconclusive: 5.8 µM [activator, full curve]
CN1CCc2c(sc3c2C(=O)NC(c2ccc4c(c2)OCO4)N3)C1 (stereo not given) | inconclusive: 0.0366 µM [activator, full curve, poor fit]
N#Cc1c(-c2ccccc2)cc2nc3ccccc3n2c1N | inconclusive: 25.9 µM [activator, single point]
CCNC(=O)c1ccc(-n2nc(C(F)(F)F)c3c2CCCC3)cc1 | inconclusive: 4.11 µM [falling, partial curve, poor fit]
Cc1ccc(S(=O)(=O)N(CC(=O)NCCSc2ccc(Cl)cc2)c2cccc(Cl)c2)cc1 | inconclusive: 1.46 µM [activator, full curve, poor fit]
O=C(CN1CCN(S(=O)(=O)c2ccc(Cl)cc2)CC1)NC1CCCC1 | inconclusive: 0.058 µM [falling, full curve, poor fit]
O=S(=O)(Nc1cccc2cccnc12)c1cccc2ccccc12 | inconclusive: 20.6 µM [falling, single point]
O=C(c1ccccn1)N(Cc1ccco1)C1(C(=O)NC2CCCCC2)CCCCC1 | inconclusive: 20.6 µM [falling, single point]
Cc1ccc(OCC(=O)Nc2nonc2-c2ccc(Br)cc2)cc1 | inconclusive: 29.1 µM [falling, single point]
O=C(c1ccccc1)c1cc2ccccc2oc1=O | inconclusive: 16.4 µM [activator, single point]
Cc1ccc(SCC(=O)c2ccc[nH]2)cc1 | inconclusive: 14.6 µM [activator, partial curve]
CC(=O)n1cc(N(C(=O)CCl)c2ccc(Cl)cc2)c2ccccc21 | inconclusive: 25.9 µM [falling, single point]
O=C(Nc1ccc2c(c1)Cc1ccccc1-2)c1ccco1 | inconclusive: 2.31 µM [activator, partial curve]
CC(=O)N1CCCC1c1nc2ccccc2n1Cc1ccccc1F (stereo not given) | inconclusive: 20.6 µM [falling, single point]
Cc1cc(C)cc(COc2ccc3c(C)c(CC(=O)O)c(=O)oc3c2C)c1 | inconclusive: 29.1 µM [activator, single point]
CN(CCc1ccccc1)C(=O)c1ccc(NC(=O)Cc2ccc(NC(=O)C3CCN(C(=O)CCc4ccccc4)CC3)cc2)cc1 | active: 9.2 µM
Cc1ccc(NS(=O)(=O)c2cc(C(=O)NCc3ccccn3)ccc2Cl)cc1C | inconclusive: 2.31 µM [falling, full curve]
CCCCOc1ccc(S(=O)(=O)N2CCCCCC2)cc1 | inconclusive: 25.9 µM [falling, partial curve, poor fit]
COc1ccccc1N1CCN(/N=C/C(Cl)=C/c2ccccc2)CC1 | inconclusive: 1.64 µM [activator, full curve, poor fit]
CN(CC(=O)Nc1ccccc1Sc1ccccc1)C1CCCCC1 | inconclusive: 29.1 µM [falling, single point]
CCCn1cc(S(=O)(=O)c2cccc(Cl)c2)c(=O)c2cc(F)c(N3CCCC3)cc21 | inconclusive: 20.6 µM [falling, single point]

SMILES | Potency
O=C(OCC(=O)N1CCOCC1)c1cccc(S(=O)(=O)N2CCCc3ccccc32)c1 | inconclusive: 23.1 µM [falling, single point]
Cc1ccc(Nc2c(-c3ccc(C)o3)nc3cnccn23)cc1 | inactive
Cc1ccc(/C=C/C(=O)Nc2cccc3cccnc23)o1 | inconclusive: 1.46 µM [activator, partial curve, poor fit]
CCn1c(SCC(=O)OCc2ccccc2)nnc1-c1ccco1 | inactive
Brc1ccc(C2Nc3cccc4cccc(c34)N2)cc1 | inactive
COc1ccc(-c2nn(-c3ccccc3)cc2C(=O)O)cc1OC | inactive
O=C(CSCc1cnn(-c2ccccc2)c1-n1cccc1)N1CCN(Cc2ccccc2)CC1 | inconclusive: 20.6 µM [falling, single point]
CCCn1nnc(NC(=O)/C=C/c2ccc(C(C)C)cc2)n1 | inconclusive: 29.1 µM [falling, single point]
O=C(C1CC1)N1CCc2cc(S(=O)(=O)NC3CCN(Cc4ccccc4)CC3)ccc21 | inconclusive: 29.1 µM [falling, single point]
Cn1cccc1C(=O)NC(=O)COC(=O)CNC(=O)CNC(=O)c1ccc(Cl)cc1Cl | inconclusive: 8.2 µM [falling, partial curve]
O=C(NCc1cccnc1)c1ccc(-c2ccc(Cl)cc2)o1 | inconclusive: 0.146 µM [activator, full curve]
CCOc1ccc2c(CC)cc(=O)oc2c1OCC | inconclusive: 29.1 µM [falling, partial curve, poor fit]
Cn1nc(C(=O)Nc2cccc(S(=O)(=O)N3CCOCC3)c2)c2ccccc2c1=O | inconclusive: 20.6 µM [falling, partial curve]
CN(C)S(=O)(=O)c1ccc(NC(=S)NC(=O)c2cccs2)cc1 | inconclusive: 8.2 µM [activator, partial curve]
CCCN1CNc2c(c(=O)[nH]c(=S)n2CCCc2ccccc2)C1 | inactive
CCc1ccc2c(c1)c(N=NC1=NC(=O)CS1)c(O)n2CC | inconclusive: 13 µM [falling, partial curve, poor fit]
COc1cccc(-c2ccc(-c3noc(-c4cccs4)n3)c(OC)n2)c1 | inconclusive: 29.1 µM [activator, single point]
CCN1CCN(S(=O)(=O)c2ccc(Cl)c(C(=O)NC(C)c3ccccc3Cl)c2)CC1 (stereo not given) | inactive
O=C(N/N=C/c1ccc(OC(=O)c2cccs2)cc1)c1ccccn1 | inconclusive: 4.61 µM [activator, full curve]
O=C(CNc1cc(S(=O)(=O)N2CCOCC2)ccc1NCC1CCCO1)Nc1ccc(F)c(F)c1 (stereo not given) | inconclusive: 6.51 µM [activator, partial curve, poor fit]
CCOC(=O)C1(NC(=O)C2(N3C(=O)c4ccccc4C3=O)CCCC2)CCCC1 | inconclusive: 0.651 µM [falling, partial curve, poor fit]
CCN1CCN(C(=O)CCc2nnc3ccc(N4CCN(c5cccc(OC)c5)CC4)nn23)CC1 | inactive

SMILES | Potency
CC(C)OCCCNC(=O)CN1C(=O)c2ccccc2Sc2ncccc21 | inconclusive: 29.1 µM [activator, single point]
CN(C(=O)CSc1ccncc1)C1CCCN(Cc2ccccc2F)C1 (stereo not given) | inconclusive: 25.9 µM [falling, partial curve, poor fit]
Cc1ccc(C2C(C#N)=C(N)Oc3n[nH]c(-c4cccs4)c32)cc1 (stereo not given) | inactive
COCn1c(-c2cccc(Br)c2)nc2ccccc21 | inconclusive: 1.3 µM [activator, partial curve, poor fit]
N#CC1=C(N)Oc2cc(N)ccc2C1c1ccccc1Cl (stereo not given) | inconclusive: 32.6 µM [falling, single point]
COc1cccc(N2CCN(CC(=O)NC3=Nc4ccccc4N=C(C)C3c3ccccc3)CC2)c1 (stereo not given) | inconclusive: 18.4 µM [falling, partial curve, poor fit]
CCN(CC)c1ccc(/C=N/NC(=O)CNC(=O)/C=C/c2ccco2)cc1 | inconclusive: 29.1 µM [activator, single point]
O=S(=O)(NCc1cc(-c2ccccc2)no1)c1ccc(Cl)cc1 | inconclusive: 32.6 µM [falling, single point]
Cc1ccc(NC(=O)NC(=O)c2ccccc2)cc1F | inconclusive: 0.259 µM [activator, full curve, poor fit]
Cc1ccc(NC(=O)COc2ccc(Cl)cc2Cl)cc1S(=O)(=O)N1CCOCC1 | active: 20.6 µM
Cn1c(=O)c2c(nc(NCc3cccnc3)n2Cc2ccc(Cl)cc2)n(C)c1=O | inconclusive: 20.6 µM [falling, single point]
COC(=O)c1ccc(Cn2ccc(=O)[nH]c2=O)cc1 | inactive
CCOc1ccc(NC(=O)CCc2c(C)nc3cc(-c4ccc(Cl)cc4)nn3c2C)cc1 | inconclusive: 0.184 µM [falling, full curve]
Cc1ccc(CNC(=O)CS(=O)(=O)Cc2nc(-c3ccccc3C)oc2C)cc1 | inconclusive: 29.1 µM [falling, single point]
CCCOc1ccc(NC(=O)C(=O)NCCCN2CCOCC2)cc1 | inactive
CCOc1ccc(Oc2cc(NC(=O)c3ccco3)cc([N+](=O)[O-])c2)cc1 | inconclusive: 20.6 µM [falling, partial curve, poor fit]
COc1ccc(NC(=S)Nc2ccc(F)cc2)c(OC)c1 | inconclusive: 29.1 µM [falling, partial curve, poor fit]
CCOc1ccccc1C1N=C(c2ccc(OC)cc2)CC(c2ccccc2O)N1 (stereo not given) | inconclusive: 16.4 µM [activator, partial curve, poor fit]
Cc1cccc(Cn2c(SCc3ccc(C(=O)NC4CCCC4)cc3)nc3ccncc32)c1 | active: 20.6 µM
Cc1ccc(NC(=O)c2sc(-n3nc(C)c(Cc4ccc5c(c4)OCO5)c3C)nc2C)cc1Cl | inactive
O=C(Cn1nnc(-c2ccc(CN3CCOCC3)cc2)n1)Nc1nc(-c2ccccc2)cs1 | active: 16.4 µM

An excerpt taken from the entries so far, as a working copy:
SMILES | Potency
Cc1ccc(/C=C/C(=O)Nc2cccc3cccnc23)o1 | inconclusive: 1.46 µM [activator, partial curve, poor fit]
CCn1c(SCC(=O)OCc2ccccc2)nnc1-c1ccco1 | inactive
Brc1ccc(C2Nc3cccc4cccc(c34)N2)cc1 | inactive
COc1ccc(-c2nn(-c3ccccc3)cc2C(=O)O)cc1OC | inactive
